For assay [1], the target named is JAK-3 protein (human) (UniProt P52333). Nature of the assay: peptide at 140 µM competing with γc for JAK-3; anti-γc immunoprecipitation, JAK-3 Western blot.
Assay [2] has the same target. Nature of the assay: peptide competition of the γc-JAK-3 coprecipitation.

Sequences of proteins named here, by UniProt entry; tags and fusion partners are left off. A change or cut given only in a name is not applied to a line headed by its entry.
UniProt P52333: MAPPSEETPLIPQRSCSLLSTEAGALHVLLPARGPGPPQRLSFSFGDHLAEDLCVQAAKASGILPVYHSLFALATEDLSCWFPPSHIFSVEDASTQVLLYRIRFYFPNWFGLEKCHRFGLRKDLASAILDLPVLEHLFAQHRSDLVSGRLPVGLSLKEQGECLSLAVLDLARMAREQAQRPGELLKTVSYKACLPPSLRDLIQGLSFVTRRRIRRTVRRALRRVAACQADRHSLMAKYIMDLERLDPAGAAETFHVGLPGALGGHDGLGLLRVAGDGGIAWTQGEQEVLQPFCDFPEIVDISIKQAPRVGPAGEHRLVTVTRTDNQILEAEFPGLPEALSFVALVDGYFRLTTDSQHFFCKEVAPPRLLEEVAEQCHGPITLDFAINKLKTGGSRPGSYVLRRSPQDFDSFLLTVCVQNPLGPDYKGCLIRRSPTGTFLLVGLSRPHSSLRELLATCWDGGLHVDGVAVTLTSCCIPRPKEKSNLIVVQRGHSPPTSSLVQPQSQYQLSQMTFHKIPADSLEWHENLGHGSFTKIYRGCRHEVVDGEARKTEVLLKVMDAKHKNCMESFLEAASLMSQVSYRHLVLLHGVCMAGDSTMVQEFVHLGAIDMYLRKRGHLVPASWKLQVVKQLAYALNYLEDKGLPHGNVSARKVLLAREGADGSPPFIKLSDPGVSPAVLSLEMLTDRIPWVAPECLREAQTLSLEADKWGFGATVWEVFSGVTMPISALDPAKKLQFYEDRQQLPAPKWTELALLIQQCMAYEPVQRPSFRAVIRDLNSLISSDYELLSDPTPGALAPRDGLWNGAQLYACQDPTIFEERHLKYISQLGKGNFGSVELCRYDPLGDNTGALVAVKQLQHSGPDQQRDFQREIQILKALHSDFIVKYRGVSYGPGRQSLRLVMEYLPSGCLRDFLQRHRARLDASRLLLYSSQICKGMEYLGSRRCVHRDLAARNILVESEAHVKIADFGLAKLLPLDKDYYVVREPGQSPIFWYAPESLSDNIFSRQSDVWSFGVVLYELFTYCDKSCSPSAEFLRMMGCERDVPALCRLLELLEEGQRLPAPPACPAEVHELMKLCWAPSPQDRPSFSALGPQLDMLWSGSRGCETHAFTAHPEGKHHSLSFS

These are yes or no findings as the source states them, for the method shown. For some assays here: Binding seen in cells or lysates may run through a third protein. Some binding calls cover weakened binding; strength is not graded here.

B1: synthetic peptide corresponding to the first 19 amino acids of the γc cytoplasmic tail (…) (peptide)
peptide: ERTMPRIPTLKNLEDLVTE
Consider B1, for which the binding entry in the assay with JAK-3 protein (human) [1] and with JAK-3 protein (human) [2] was “binds” in each case.
